Results taken from paper PMC2500221.
No constants are given. Whether binding was seen depends on the method and setting. In cells and extracts the contact can be indirect. Some entries that bind do so weakly or less than the wild type. For some of these results: Sequences can lack the tags named with a protein.

Chains of the proteins cited; added tags and fusions are not shown.
UniProt Q9W5E1: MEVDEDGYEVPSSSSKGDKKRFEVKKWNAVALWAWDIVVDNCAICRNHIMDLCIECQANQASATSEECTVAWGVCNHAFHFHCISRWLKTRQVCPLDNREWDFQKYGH
UniProt Q24311: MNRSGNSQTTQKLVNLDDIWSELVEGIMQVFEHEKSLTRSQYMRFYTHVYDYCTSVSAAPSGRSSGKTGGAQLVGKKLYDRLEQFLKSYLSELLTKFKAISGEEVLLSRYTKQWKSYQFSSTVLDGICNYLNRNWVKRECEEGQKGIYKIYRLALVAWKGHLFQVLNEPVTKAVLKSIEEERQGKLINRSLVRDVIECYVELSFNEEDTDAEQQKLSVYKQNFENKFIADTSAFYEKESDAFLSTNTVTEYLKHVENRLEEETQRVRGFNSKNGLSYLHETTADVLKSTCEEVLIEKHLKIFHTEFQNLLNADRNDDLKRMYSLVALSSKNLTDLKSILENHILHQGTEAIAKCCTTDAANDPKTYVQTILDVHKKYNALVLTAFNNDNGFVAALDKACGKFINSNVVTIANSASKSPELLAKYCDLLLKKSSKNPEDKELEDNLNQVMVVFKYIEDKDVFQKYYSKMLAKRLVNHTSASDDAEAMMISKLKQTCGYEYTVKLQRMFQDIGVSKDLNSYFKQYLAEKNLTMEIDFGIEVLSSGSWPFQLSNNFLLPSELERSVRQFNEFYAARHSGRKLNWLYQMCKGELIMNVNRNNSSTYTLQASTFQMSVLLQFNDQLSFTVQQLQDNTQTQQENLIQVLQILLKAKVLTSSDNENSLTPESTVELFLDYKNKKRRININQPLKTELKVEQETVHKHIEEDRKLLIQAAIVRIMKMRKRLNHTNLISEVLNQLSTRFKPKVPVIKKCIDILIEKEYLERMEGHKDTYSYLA

How the values were obtained:
[1] = molecular target: Flag-Roc1a (Drosophila melanogaster) (UniProt Q9W5E1); test: co-IP; tagged Roc protein or RING-swap chimera immunoprecipitated (anti-FLAG for the FLAG-Roc proteins) from transgenic embryo extracts (0-16 h; NP-40 lysis buffer: 50 mM Tris pH 8.3, 150 mM NaCl, 0.5% NP-40), overnight at 4°C on protein-A beads; co-precipitating endogenous Cullins detected by immunoblot; Flag-Roc1a also tested in the Roc2^KG mutant background (Fig. 8)
[2] = molecular target: T1, Flag-Roc1b (Drosophila melanogaster) (UniProt Q9NHX0); test: as above
T1 sequence: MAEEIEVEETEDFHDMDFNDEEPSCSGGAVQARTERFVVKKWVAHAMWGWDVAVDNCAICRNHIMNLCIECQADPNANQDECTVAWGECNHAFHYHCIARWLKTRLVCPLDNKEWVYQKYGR

[3] = molecular target: T2, V5-Roc1b (control Roc1b construct) (Drosophila melanogaster) (UniProt Q9NHX0); test: co-IP; V5-tagged Roc or chimera constructs transfected into S2 cells, lysates 48 h later, anti-V5 immunoprecipitation; endogenous Cul1, Cul3, Cul5 detected by immunoblot
T2 sequence: T1 sequence

[4] = molecular target: V5-Roc1a (control Roc1a construct) (Drosophila melanogaster) (UniProt Q9W5E1); test: as above

binding [1]: binds
binding [2]: no binding
binding [3]: no binding
binding [4]: binds
Substance: Cul1 (from UniProt Q24311 1-774)
